Source: paper PMC6629618
These are yes or no findings as the source states them, for the method shown. Binding seen in cells or lysates may run through a third protein. Binding can be weak; no strength is given. For some assays here: Where a sequence is shown, tags or fusion partners need not be part of it.

B1: LHY C487:YFP^N (domain or fragment, UniProt Q6R0H1 174-645)
chain: PTKQVSGDIETSKTSTVDNAVQDVPKKNKDKDGNDGTTVHSMQNYPWHFHADIVNGNIAKCPQNHPSGMVSQDFMFHPMREETHGHANLQATTASATTTASHQAFPACHSQDDYRSFLQISSTFSNLIMSTLLQNPAAHAAATFAASVWPYASVGNSGDSSTPMSSSPPSITAIAAATVAAATAWWASHGLLPVCAPAPITCVPFSTVAVPTPAMTEMDTVENTQPFEKQNTALQDQNLASKSPASSSDDSDETGVTKLNADSKTNDDKIEEVVVTAAVHDSNTAQKKNLVDRSSCGSNTPSGSDAETDALDKMEKDKEDVKETDENQPDVIELNNRKIKMRDNNSNNNATTDSWKEVSEEGRIAFQALFARERLPQSFSPPQVAENVNRKQSDTSMPLAPNFKSQDSCAADQEGVVMIGVGTCKSLKTRQTGFKPYKRCSMEVKESQVGNINNQSDEKVCKRLRLEGEAST
B2: LHY:YFP^N (protein, UniProt Q6R0H1 1-645)
chain: MDTNTSGEELLAKARKPYTITKQRERWTEDEHERFLEALRLYGRAWQRIEEHIGTKTAVQIRSHAQKFFTKLEKEAEVKGIPVCQALDIEIPPPRPKRKPNTPYPRKPGNNGTSSSQVSSAKDAKLVSSASSSQLNQAFLDLEKMPFSEKTSTGKENQDENCSGVSTVNKYPLPTKQVSGDIETSKTSTVDNAVQDVPKKNKDKDGNDGTTVHSMQNYPWHFHADIVNGNIAKCPQNHPSGMVSQDFMFHPMREETHGHANLQATTASATTTASHQAFPACHSQDDYRSFLQISSTFSNLIMSTLLQNPAAHAAATFAASVWPYASVGNSGDSSTPMSSSPPSITAIAAATVAAATAWWASHGLLPVCAPAPITCVPFSTVAVPTPAMTEMDTVENTQPFEKQNTALQDQNLASKSPASSSDDSDETGVTKLNADSKTNDDKIEEVVVTAAVHDSNTAQKKNLVDRSSCGSNTPSGSDAETDALDKMEKDKEDVKETDENQPDVIELNNRKIKMRDNNSNNNATTDSWKEVSEEGRIAFQALFARERLPQSFSPPQVAENVNRKQSDTSMPLAPNFKSQDSCAADQEGVVMIGVGTCKSLKTRQTGFKPYKRCSMEVKESQVGNINNQSDEKVCKRLRLEGEAST
B3: LHY:MYC (protein, UniProt Q6R0H1 1-645)
chain: B2 chain
B4: LHY (endogenous) (protein, UniProt Q6R0H1 1-645)
chain: B2 chain
B5: LHY N173:YFP^N (domain or fragment, UniProt Q6R0H1 1-173)
chain: MDTNTSGEELLAKARKPYTITKQRERWTEDEHERFLEALRLYGRAWQRIEEHIGTKTAVQIRSHAQKFFTKLEKEAEVKGIPVCQALDIEIPPPRPKRKPNTPYPRKPGNNGTSSSQVSSAKDAKLVSSASSSQLNQAFLDLEKMPFSEKTSTGKENQDENCSGVSTVNKYPL

How the values were obtained:
[1] = target: SHB1:YFP^C (Arabidopsis thaliana); test: split reporter; BiFC in N. benthamiana leaf epidermal cells after agroinfiltration, pSPYNE and pSPYCE fusions under the CaMV 35S promoter, images 48-72 h after transfection, fluorescence or confocal microscope; also done in the dark (interaction less frequent)
[2] = target: SHB1:GFP (Arabidopsis thaliana); test: co-IP; protein extracts of 35S::SHB1:GFP and of 35S::CCA1:FLAG or 35S::LHY:MYC transgenic Arabidopsis seedlings mixed, 2-3 h at 4 °C, IP buffer (25 mM Tris-HCl pH 7.5, 150 mM NaCl, 0.1% Triton), precipitated with anti-GFP antibody, blots with anti-FLAG or anti-MYC
[3] = target: SHB1:GFP (Arabidopsis thaliana); test: co-IP; 35S::SHB1:GFP transgenic plants in the dark and under red light; SHB1:GFP precipitated, endogenous CCA1 or LHY detected with anti-CCA1 or anti-LHY antibodies

| Binder | binding [1] | other results |
| --- | --- | --- |
| B1 | binds |  |
| B2 | binds |  |
| B3 |  | binding [2]: binds |
| B4 |  | binding [3]: binds |
| B5 | no binding |  |
